The values below come from PMC5562708.

Chains of the proteins cited; added tags and fusions are not shown. Residues count along the entry.
UniProt Q13873, residues 27-1038: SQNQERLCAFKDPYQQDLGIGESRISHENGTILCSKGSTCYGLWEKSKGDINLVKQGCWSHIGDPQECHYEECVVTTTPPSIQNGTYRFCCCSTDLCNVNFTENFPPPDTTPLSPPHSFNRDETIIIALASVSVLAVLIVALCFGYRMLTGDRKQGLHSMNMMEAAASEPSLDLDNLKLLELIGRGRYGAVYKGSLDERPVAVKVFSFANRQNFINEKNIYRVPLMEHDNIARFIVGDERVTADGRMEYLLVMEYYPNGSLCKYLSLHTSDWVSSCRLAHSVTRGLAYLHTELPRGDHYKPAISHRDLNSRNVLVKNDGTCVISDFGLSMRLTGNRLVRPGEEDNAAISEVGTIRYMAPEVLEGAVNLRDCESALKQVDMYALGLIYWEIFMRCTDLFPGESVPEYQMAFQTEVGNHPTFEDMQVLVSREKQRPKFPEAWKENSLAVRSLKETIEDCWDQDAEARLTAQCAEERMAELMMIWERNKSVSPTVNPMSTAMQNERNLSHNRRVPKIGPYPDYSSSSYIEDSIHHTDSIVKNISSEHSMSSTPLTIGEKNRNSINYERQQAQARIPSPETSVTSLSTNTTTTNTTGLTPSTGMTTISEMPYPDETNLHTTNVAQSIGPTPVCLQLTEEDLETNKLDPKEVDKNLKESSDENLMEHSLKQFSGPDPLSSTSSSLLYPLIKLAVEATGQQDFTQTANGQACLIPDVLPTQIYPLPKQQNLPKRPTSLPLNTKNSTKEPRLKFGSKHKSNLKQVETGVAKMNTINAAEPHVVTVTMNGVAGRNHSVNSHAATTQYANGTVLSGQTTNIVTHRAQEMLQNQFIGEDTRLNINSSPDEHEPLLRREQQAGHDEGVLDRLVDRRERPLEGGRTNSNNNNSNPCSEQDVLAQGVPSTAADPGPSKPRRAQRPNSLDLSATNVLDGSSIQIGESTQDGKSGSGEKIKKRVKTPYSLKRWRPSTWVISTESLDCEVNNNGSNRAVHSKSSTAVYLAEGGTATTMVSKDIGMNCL
UniProt Q15797: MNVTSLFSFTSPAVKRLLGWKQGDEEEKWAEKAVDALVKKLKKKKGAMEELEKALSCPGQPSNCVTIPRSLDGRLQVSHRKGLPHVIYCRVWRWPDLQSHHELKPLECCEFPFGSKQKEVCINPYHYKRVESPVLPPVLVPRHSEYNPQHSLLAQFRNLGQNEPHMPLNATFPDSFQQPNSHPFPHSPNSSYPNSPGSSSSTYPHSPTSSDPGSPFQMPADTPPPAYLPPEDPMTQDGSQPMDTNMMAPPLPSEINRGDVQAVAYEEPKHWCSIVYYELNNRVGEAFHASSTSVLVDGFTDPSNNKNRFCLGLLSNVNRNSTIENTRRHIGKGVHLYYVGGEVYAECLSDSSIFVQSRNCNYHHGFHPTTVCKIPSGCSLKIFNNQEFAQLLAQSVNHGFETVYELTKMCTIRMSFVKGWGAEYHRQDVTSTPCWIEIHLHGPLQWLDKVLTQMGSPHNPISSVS
UniProt P35569: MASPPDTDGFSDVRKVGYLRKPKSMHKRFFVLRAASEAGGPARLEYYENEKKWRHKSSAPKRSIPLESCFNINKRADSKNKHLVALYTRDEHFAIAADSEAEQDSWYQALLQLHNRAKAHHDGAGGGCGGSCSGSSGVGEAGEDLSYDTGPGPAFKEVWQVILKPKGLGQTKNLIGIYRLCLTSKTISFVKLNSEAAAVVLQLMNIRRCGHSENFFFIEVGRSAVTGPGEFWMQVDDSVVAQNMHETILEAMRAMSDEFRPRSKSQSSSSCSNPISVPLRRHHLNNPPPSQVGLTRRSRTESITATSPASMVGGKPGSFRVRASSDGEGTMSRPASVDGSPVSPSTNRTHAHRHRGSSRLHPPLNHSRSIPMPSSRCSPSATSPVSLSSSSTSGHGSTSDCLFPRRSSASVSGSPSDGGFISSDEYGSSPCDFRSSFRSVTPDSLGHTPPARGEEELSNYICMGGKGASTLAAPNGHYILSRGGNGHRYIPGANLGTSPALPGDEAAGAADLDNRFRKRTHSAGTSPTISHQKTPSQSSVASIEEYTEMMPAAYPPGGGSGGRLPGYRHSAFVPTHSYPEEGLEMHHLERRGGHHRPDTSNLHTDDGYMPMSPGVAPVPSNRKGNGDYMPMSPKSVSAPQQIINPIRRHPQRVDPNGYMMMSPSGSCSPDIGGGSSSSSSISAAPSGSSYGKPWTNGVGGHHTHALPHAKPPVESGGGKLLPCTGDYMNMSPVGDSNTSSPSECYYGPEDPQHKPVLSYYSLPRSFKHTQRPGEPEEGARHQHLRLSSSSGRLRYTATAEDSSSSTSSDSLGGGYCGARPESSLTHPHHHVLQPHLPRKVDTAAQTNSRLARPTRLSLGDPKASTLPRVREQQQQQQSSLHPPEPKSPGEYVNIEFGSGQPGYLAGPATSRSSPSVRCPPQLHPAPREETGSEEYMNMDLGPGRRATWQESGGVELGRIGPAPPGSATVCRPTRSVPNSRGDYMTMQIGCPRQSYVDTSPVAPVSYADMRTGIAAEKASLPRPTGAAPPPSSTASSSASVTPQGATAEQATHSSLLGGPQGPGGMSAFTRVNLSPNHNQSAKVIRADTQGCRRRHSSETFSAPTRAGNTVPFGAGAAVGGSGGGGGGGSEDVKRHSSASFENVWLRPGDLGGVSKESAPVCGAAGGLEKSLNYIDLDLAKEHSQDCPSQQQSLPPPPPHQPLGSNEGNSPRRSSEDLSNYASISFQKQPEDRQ

Test [1] concerns the target T1, endogenous IRS4 (immortalised human myoblasts) (human (endogenous in immortalised human myoblasts)) (UniProt O14654).
T1 sequence: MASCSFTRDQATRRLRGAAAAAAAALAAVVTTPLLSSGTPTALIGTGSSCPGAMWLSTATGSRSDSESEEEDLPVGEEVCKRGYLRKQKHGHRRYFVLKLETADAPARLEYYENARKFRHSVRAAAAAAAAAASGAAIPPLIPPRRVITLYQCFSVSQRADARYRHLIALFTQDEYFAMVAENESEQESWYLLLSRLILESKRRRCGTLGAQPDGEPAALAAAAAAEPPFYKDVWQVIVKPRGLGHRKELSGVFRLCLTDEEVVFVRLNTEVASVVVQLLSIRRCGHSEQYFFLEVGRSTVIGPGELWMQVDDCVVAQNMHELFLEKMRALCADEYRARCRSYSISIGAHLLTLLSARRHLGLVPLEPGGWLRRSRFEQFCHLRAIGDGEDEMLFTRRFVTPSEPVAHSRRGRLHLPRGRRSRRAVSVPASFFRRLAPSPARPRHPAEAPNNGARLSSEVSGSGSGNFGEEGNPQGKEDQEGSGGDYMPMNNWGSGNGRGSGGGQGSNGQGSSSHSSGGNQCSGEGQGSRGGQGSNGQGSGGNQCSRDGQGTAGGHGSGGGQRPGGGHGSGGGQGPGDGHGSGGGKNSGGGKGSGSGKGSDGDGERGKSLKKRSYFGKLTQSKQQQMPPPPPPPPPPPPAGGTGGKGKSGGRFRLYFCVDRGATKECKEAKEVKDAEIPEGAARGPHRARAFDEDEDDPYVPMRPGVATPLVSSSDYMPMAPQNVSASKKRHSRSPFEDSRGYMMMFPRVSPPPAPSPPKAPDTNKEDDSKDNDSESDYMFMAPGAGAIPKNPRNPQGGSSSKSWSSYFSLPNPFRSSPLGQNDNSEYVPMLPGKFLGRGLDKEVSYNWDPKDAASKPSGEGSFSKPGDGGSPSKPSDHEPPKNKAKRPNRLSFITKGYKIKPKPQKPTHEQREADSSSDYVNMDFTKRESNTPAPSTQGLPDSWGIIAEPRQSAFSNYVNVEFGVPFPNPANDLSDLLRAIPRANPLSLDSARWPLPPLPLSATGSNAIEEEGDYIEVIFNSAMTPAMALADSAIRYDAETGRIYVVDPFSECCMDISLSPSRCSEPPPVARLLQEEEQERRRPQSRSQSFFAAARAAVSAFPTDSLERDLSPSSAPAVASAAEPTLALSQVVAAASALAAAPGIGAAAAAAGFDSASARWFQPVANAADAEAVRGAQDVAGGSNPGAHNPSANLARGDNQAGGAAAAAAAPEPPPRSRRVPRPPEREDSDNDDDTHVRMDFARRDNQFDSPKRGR
Description: co-IP; endogenous proteins; immortalised human myoblasts lysed 48 h post-seeding; IP with anti-IRS4 antibody, protein A sepharose; Western blot. Background: Immunoblotting shows a protein as a band on a membrane.

Test [2] deals with T1, endogenous IRS4 (immortalised human myoblasts) (human (endogenous in immortalised human myoblasts)). In words: proximity ligation; Duolink in situ PLA in intact immortalised human myoblasts, endogenous proteins; antibodies to BMPRII, IRS4 (EP907Y), Smad1.
Test [3] has as its target HA-tagged BMPRII long form (HA-BMPRII-LF) (human) (UniProt Q13873). Description: pull-down; surface biotinylation of transfected HEK293T cells (Sulfo-NHS-SS-Biotin), lysis in RIPA buffer2, pull-down of biotinylated surface proteins with streptavidin sepharose overnight; Western blot.
Test [4] deals with T2, myc-tagged IRS4 (IRS4-myc), wild type (mouse) (UniProt Q9Z0Y7).
T2 sequence: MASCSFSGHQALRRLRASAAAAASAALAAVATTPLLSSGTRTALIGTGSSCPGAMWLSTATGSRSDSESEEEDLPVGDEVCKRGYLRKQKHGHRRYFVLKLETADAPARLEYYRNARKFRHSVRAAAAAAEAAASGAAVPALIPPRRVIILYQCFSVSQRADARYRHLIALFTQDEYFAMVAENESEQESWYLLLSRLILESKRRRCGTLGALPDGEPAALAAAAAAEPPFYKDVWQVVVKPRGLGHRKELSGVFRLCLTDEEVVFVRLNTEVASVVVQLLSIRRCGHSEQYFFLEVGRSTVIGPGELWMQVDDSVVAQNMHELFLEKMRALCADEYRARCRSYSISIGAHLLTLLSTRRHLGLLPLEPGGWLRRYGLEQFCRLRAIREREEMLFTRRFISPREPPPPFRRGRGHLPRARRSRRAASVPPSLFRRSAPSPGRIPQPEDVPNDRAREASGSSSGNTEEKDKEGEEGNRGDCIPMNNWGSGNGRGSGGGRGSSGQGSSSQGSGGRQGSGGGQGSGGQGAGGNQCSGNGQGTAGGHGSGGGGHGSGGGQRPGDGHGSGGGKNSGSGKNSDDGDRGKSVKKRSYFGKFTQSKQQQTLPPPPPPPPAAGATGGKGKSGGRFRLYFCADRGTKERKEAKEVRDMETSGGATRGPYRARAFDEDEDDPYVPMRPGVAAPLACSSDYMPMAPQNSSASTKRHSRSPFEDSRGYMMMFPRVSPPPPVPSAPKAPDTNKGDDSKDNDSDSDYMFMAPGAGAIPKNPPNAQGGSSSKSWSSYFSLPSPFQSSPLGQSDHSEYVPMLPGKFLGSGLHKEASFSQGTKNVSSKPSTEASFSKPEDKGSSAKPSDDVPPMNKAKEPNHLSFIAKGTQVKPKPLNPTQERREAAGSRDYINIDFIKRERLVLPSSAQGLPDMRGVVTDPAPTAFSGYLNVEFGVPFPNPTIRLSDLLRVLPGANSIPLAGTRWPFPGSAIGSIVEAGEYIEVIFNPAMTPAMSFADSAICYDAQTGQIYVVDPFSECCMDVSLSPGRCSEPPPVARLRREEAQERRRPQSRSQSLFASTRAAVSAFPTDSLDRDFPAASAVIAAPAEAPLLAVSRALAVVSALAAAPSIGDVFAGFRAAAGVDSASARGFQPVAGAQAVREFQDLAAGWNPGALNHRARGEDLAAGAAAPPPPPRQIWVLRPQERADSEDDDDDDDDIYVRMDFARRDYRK
In words: co-IP; transfected HEK293T cells, lysed directly or starved 6 h and stimulated with 10 nM BMP2; RIPA or TNE buffer; IP with anti-myc (9E10) or anti-IRS4 antibody overnight, protein A sepharose; Western blot.

No constants are given. Whether binding was seen depends on the method and setting. In cells and extracts the contact can be indirect. Some entries that bind do so weakly or less than the wild type. For some of these results: Sequences can lack the tags named with a protein.

For “endogenous Smad1 (immortalised human myoblasts) (from UniProt Q15797 1-465)”, the binding result in test [1] and in test [2] was “binds” each time.

Take “endogenous BMPRII (immortalised human myoblasts) (from UniProt Q13873 27-1038) (receptor)”: the binding result in test [1] and in test [2] was “binds” each time.

For IRS1-myc (from UniProt P35569 1-1233), in test [3], the binding result is “no binding”.

“FLAG-tagged Smad1 (FLAG-Smad1) (from UniProt Q15797 1-465)”: the binding result in test [4] is “binds”.

B1: myc-tagged IRS4 (IRS4-myc), wild type (protein, UniProt Q9Z0Y7 1-1216)
chain: MASCSFSGHQALRRLRASAAAAASAALAAVATTPLLSSGTRTALIGTGSSCPGAMWLSTATGSRSDSESEEEDLPVGDEVCKRGYLRKQKHGHRRYFVLKLETADAPARLEYYRNARKFRHSVRAAAAAAEAAASGAAVPALIPPRRVIILYQCFSVSQRADARYRHLIALFTQDEYFAMVAENESEQESWYLLLSRLILESKRRRCGTLGALPDGEPAALAAAAAAEPPFYKDVWQVVVKPRGLGHRKELSGVFRLCLTDEEVVFVRLNTEVASVVVQLLSIRRCGHSEQYFFLEVGRSTVIGPGELWMQVDDSVVAQNMHELFLEKMRALCADEYRARCRSYSISIGAHLLTLLSTRRHLGLLPLEPGGWLRRYGLEQFCRLRAIREREEMLFTRRFISPREPPPPFRRGRGHLPRARRSRRAASVPPSLFRRSAPSPGRIPQPEDVPNDRAREASGSSSGNTEEKDKEGEEGNRGDCIPMNNWGSGNGRGSGGGRGSSGQGSSSQGSGGRQGSGGGQGSGGQGAGGNQCSGNGQGTAGGHGSGGGGHGSGGGQRPGDGHGSGGGKNSGSGKNSDDGDRGKSVKKRSYFGKFTQSKQQQTLPPPPPPPPAAGATGGKGKSGGRFRLYFCADRGTKERKEAKEVRDMETSGGATRGPYRARAFDEDEDDPYVPMRPGVAAPLACSSDYMPMAPQNSSASTKRHSRSPFEDSRGYMMMFPRVSPPPPVPSAPKAPDTNKGDDSKDNDSDSDYMFMAPGAGAIPKNPPNAQGGSSSKSWSSYFSLPSPFQSSPLGQSDHSEYVPMLPGKFLGSGLHKEASFSQGTKNVSSKPSTEASFSKPEDKGSSAKPSDDVPPMNKAKEPNHLSFIAKGTQVKPKPLNPTQERREAAGSRDYINIDFIKRERLVLPSSAQGLPDMRGVVTDPAPTAFSGYLNVEFGVPFPNPTIRLSDLLRVLPGANSIPLAGTRWPFPGSAIGSIVEAGEYIEVIFNPAMTPAMSFADSAICYDAQTGQIYVVDPFSECCMDVSLSPGRCSEPPPVARLRREEAQERRRPQSRSQSLFASTRAAVSAFPTDSLDRDFPAASAVIAAPAEAPLLAVSRALAVVSALAAAPSIGDVFAGFRAAAGVDSASARGFQPVAGAQAVREFQDLAAGWNPGALNHRARGEDLAAGAAAPPPPPRQIWVLRPQERADSEDDDDDDDDIYVRMDFARRDYRK
Turning to B1, the binding result in test [3] is “binds”.
